“Also recorded” adds a separate entry of the source. For part of these data: At least one read-out could not be matched to a standard name with certainty. For part of these data: At least one compound was matched to its structure with a doubt left.
What was measured:
[1] = target: rat uterine oestrogen receptors; test: Scatchard analysis of tritiated oestradiol binding, rat uterus; conditions: Figure 4, compared with control without additional compounds
Method: Using tissue, snap frozen at time of excision, cytosols were prepared by dismembration using a Braun II Mikrodismembrator. Frozen tissue was minced and pulverised. The resultant powder was resuspended in 1-mm phosphate buffer containing 10% (v/v) glycerol, 1.5mm EDTA, 10mM monothioglycerol, 20mM Sodium molybdate, aprotinin (1ug/ml) and STI (1ug/ml) and phenyl methyl sulfonyl fluoride (30ug/ml) at pH 7.4 by stirring for 15 minutes at 4°C. This suspension was centrifuged at 100,000g for 1 hour at 4°C and the supernantant was used for competition analysis.
After overnight incubation at 4°C assay tubes were incubated with DCC as above to remove free steroid and aliquots of the resultant supernatant were incubated with toluene based scintillant and counted on a Scintillation Counter. Data obtained was analysed according to the method of Scatchard.

[2] = system: oestrogen response element driven GFP gene in MCF-7 breast cancer cell line; test: Oestrogen reporter plasmid xTG (GFP) transcriptional activity in MCF-7 cells; assay type: cell-based; conditions: E2 only at 10^-8M; MCF-7 transiently transfected with xTG for three days
Text: XTG consists of a oestrogen response element. Upstream of a simple TATA promoter which together drive transcription of the GFP gene from the jellyfish Aequorea victoria. The xERE sequence is made up of the following - GGTCA CAG TGACC […] (SEQUENCE ID NO: 1)
The GFP gene - from GFPuv was supplied by Clontech (Clontech Laboratories, Inc., 1020 East Meadow Circle, Palo Alto, CA 94303-4230, USA)
E2 was used at a concentration of 10^-8M while all other compounds were used at 10^-6M. All ligands were added to cell media during transfection.

| Structure (SMILES) | apparent affinity of oestrogen binding (kD, slope of Scatchard regression lines) [1] | GFP accumulation [2] |
| --- | --- | --- |
| C[C@]12CC[C@H]3[C@@H](CC[C@@]45O[C@@H]4C(=O)[C@H](C#N)C[C@]35C)[C@@H]1CCC2=O [keto-trilostane] | increases the apparent affinity of oestrogen binding; also recorded: altered the kD to a higher affinity | – |
| C[C@]12CC[C@@H]3c4ccc(O)cc4CC[C@H]3[C@@H]1CC[C@@H]2O [oestradiol] | – | showed GFP accumulation |
| C[C@]12CC[C@H]3[C@@H](CC[C@@]45O[C@@H]4c4oncc4C[C@]35C)[C@@H]1CC[C@@H]2O [stage III compound, (4α,5α-17β)-4,5-epoxyandrost-2-eno[iso-2,3-D]-azol-17-ol] | no change in binding affinity; also recorded: no effect | – |

Source: patent publication EP1255553B1 (Stegram Pharmaceuticals Limited, priority 2000, dated 2001)
